Data reported in US20210244721A1, “SMALL MOLECULE ENTEROVIRUS INHIBITORS AND USES THEREOF” (priority 2020, published 2021).
Some results were stated once for a whole list of compounds, not compound by compound.

Test system: EV-D68 US/KY/14-18953 virus
Test: CPE assay, EV-D68 US/KY/14-18953 in RD cells
Format: cell-based, Enterovirus D68 (EV-D68)
Conditions: against five different strains of EV-D68 viruses (summary)

## O=C(NCCN1CCCC1)c1cc(-c2cccs2)nc2ccccc12 [Compound 12c, N-[2-(pyrrolidin-1-yl)ethyl]-2-(thiophen-2-yl)quinoline-4-carboxamide]
  selectivity index (SI): > 180
